Measured values: article PMC9647857
Results are given in words; binding and its absence hold for the method and conditions named. Binding seen in cells or lysates may run through a third protein. Some entries that bind do so weakly or less than the wild type.

Protein sequences, listed by entry. Tags and fused reporters are not part of them.
UniProt Q13263: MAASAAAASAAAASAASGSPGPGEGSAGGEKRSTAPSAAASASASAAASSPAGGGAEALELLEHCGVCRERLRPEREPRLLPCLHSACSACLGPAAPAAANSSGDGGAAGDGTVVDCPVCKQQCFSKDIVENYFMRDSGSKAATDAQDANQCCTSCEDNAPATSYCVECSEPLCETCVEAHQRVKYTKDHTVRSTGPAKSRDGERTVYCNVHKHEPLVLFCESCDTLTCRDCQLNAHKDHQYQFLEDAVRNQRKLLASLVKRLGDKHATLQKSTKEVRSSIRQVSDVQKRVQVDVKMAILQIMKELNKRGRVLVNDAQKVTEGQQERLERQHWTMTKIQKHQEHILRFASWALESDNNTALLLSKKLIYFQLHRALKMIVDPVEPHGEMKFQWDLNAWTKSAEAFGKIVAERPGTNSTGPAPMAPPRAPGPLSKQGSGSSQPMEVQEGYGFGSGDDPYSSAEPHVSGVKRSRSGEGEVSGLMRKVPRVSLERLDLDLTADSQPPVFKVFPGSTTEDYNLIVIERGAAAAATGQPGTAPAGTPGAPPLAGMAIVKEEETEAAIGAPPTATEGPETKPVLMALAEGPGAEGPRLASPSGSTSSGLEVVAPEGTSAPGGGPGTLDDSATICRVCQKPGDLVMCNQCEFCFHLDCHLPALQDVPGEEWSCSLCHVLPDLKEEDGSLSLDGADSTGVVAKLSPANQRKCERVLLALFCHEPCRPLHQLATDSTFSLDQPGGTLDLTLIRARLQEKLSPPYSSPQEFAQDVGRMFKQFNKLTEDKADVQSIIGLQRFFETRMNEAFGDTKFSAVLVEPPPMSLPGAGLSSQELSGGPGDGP

T1: CSDE1 (human (endogenous in HepG2 and SK-HEP-1)) (UniProt O75534)
T1 sequence: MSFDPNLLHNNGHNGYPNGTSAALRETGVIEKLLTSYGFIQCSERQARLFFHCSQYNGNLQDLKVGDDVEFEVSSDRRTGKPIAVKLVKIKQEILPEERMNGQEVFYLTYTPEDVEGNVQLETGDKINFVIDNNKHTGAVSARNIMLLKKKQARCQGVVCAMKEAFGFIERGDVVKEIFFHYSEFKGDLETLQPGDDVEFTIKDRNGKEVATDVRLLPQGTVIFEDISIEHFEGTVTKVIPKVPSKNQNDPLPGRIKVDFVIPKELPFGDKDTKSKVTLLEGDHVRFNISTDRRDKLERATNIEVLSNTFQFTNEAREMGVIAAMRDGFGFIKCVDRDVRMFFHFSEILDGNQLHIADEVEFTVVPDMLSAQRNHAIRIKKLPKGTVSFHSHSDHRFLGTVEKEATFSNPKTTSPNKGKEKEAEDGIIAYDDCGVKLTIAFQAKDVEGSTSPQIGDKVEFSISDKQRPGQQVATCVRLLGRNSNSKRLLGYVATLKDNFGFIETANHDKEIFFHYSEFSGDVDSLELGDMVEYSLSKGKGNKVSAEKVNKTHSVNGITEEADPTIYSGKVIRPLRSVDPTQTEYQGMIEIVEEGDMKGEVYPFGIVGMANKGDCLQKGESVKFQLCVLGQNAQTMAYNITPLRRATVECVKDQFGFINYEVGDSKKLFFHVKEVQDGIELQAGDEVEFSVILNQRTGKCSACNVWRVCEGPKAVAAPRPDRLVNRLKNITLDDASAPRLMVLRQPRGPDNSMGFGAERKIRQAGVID


What was measured:
[1] = molecular target: T1, CSDE1 (human (endogenous in HepG2 and SK-HEP-1)); assay: co-IP; endogenous proteins; HepG2 and SK-HEP-1 lysates incubated with antibodies of CSDE1, TRIM28 or IgG at 4°C overnight, Dynabeads Protein G, NP-40 lysis buffer washes, Western blot; also in cells with stable ARHGAP5-AS1 knock-down (more TRIM28 with CSDE1) or overexpression (less TRIM28 with CSDE1)
[2] = molecular target: TRIM28 (human (endogenous in HepG2 and SK-HEP-1)) (UniProt Q13263); assay: as above

| Molecule | binding [1] | binding [2] |
| --- | --- | --- |
| TRIM28 (from UniProt Q13263 1-835) | binds |  |
| CSDE1 (protein, UniProt O75534-2 1-767) MSFDPNLLHNNGHNGYPNGTSAALRETGVIEKLLTSYGFIQCSERQARLFFHCSQYNGNLQDLKVGDDVEFEVSSDRRTGKPIAVKLVKIKQEILPEERMNGQEVFYLTYTPEDVEGNVQLETGDKINFVIDNNKHTGAVSARNIMLLKKKQARCQGVVCAMKEAFGFIERGDVVKEIFFHYSEFKGDLETLQPGDDVEFTIKDRNGKEVATDVRLLPQGTVIFEDISIEHFEGTVTKVIPKVPSKNQNDPLPGRIKVDFVIPKELPFGDKDTKSKVTLLEGDHVRFNISTDRRDKLERATNIEVLSNTFQFTNEAREMGVIAAMRDGFGFIKCVDRDVRMFFHFSEILDGNQLHIADEVEFTVVPDMLSAQRNHAIRIKKLPKGTVSFHSHSDHRFLGTVEKEATFSNPKTTSPNKGKEKEAEDGIIAYDDCGVKLTIAFQAKDVEGSTSPQIGDKVEFSISDKQRPGQQVATCVRLLGRNSNSKRLLGYVATLKDNFGFIETANHDKEIFFHYSEFSGDVDSLELGDMVEYSLSKGKGNKVSAEKVNKTHSVNGITEEADPTIYSGKVIRPLRSVDPTQTEYQGMIEIVEEGDMKGEVYPFGIVGMANKGDCLQKGESVKFQLCVLGQNAQTMAYNITPLRRATVECVKDQFGFINYEVGDSKKLFFHVKEVQDGIELQAGDEVEFSVILNQRTGKCSACNVWRVCEGPKAVAAPRPDRLVNRLKNITLDDASAPRLMVLRQPRGPDNSMGFGAERKIRQAGVID |  | binds |
